These are yes or no findings as the source states them, for the method shown. In cells and extracts the contact can be indirect. Some results given as binding are weak or reduced against the parent protein; the word gives no strength.
Experiments:
[1] = target: T1, basic leucine zipper transcription factor ATF (activating transcription factor)-like 2 (BATF2) (human (endogenous in HCT116 and CCD 841 CoN)) (UniProt Q8N1L9); assay: co-IP; IgG or BATF2 antibody (2 µg) on Dynabeads protein G, 500 µg protein at 4°C overnight; eluate to Western blot; lysates of HCT116, C116 and A116 cells
T1 sequence: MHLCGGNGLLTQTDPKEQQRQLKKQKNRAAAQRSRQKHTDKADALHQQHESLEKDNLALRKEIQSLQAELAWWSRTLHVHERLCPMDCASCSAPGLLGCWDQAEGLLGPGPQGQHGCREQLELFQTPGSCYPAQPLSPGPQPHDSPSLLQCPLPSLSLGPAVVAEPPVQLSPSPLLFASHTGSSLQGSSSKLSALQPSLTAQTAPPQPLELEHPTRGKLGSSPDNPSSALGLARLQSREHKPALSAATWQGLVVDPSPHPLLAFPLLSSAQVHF

Chains of the proteins cited; added tags and fusions are not shown.
UniProt O14980: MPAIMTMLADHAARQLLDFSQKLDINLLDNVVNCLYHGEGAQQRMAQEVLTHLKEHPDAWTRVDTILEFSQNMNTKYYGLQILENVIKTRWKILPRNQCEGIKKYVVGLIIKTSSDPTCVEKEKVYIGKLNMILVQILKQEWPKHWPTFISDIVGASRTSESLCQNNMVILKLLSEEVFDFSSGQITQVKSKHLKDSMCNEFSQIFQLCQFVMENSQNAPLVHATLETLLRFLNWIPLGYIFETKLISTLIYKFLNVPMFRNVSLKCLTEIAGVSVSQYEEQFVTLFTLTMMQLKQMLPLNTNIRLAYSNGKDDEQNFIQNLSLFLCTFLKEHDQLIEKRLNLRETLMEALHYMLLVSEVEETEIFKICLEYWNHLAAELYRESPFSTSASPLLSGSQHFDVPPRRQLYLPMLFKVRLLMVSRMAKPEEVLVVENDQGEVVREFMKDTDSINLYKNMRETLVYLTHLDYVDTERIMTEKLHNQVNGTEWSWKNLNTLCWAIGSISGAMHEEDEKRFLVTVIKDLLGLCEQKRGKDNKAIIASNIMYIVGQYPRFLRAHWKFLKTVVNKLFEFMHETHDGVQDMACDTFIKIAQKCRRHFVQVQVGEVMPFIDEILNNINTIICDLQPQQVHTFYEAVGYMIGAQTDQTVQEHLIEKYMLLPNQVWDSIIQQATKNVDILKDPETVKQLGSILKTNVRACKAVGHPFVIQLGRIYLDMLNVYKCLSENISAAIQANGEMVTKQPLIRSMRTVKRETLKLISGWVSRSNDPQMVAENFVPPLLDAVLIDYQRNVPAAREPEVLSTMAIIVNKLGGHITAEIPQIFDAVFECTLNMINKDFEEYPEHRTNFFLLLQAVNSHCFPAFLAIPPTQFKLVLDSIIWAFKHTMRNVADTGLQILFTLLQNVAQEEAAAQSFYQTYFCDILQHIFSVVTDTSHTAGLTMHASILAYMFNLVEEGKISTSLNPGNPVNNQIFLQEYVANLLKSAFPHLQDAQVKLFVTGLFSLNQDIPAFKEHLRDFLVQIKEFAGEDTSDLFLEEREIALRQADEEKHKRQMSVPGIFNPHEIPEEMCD

[2] = target: T2, recombinant wild-type BATF2 (C116 cells) (UniProt Q8N1L9); assay: as above
T2 sequence: T1 sequence

Substance: chromosome region maintenance 1 (CRM1) (from UniProt O14980 1-1071)
- binding [1]: binds
- binding [2]: binds

Reference: PMC10165233
